Results taken from article PMC4869175, “Evidence that phytochrome functions as a protein kinase in plant light signalling” (Nature Communications, 2016).

Molecular target: Δ210-PIF3 (APA/APB motif-deleted PIF3)
Assay: pull-down; GST/strep-fused interacting protein (1.0 μg) held on glutathione resin, phytochrome (1.0 μg) in solution, Pr and Pfr forms both tested; 60 min at 4 °C in pull-down buffer (100 mM Tris-HCl pH 7.8, 1 mM EDTA, 150 mM NaCl, 100 μg/ml BSA); western blot with oat22 and anti-GST; both purified

binding: binds weakly
B1: Avena sativa phytochrome A, full-length wild type (natural protein, UniProt P06593 1-1129, looked up)
chain: MSSSRPASSSSSRNRQSSQARVLAQTTLDAELNAEYEESGDSFDYSKLVEAQRDGPPVQQGRSEKVIAYLQHIQKGKLIQTFGCLLALDEKSFNVIAFSENAPEMLTTVSHAVPSVDDPPRLGIGTNVRSLFSDQGATALHKALGFADVSLLNPILVQCKTSGKPFYAIVHRATGCLVVDFEPVKPTEFPATAAGALQSYKLAAKAISKIQSLPGGSMEVLCNTVVKEVFDLTGYDRVMAYKFHEDDHGEVFSEITKPGLEPYLGLHYPATDIPQAARLLFMKNKVRMICDCRARSIKVIEAEALPFDISLCGSALRAPHSCHLQYMENMNSIASLVMAVVVNENEEDDEAESEQPAQQQKKKKLWGLLVCHHESPRYVPFPLRYACEFLAQVFAVHVNREFELEKQLREKNILKMQTMLSDMLFREASPLTIVSGTPNIMDLVKCDGAALLYGGKVWRLRNAPTESQIHDIAFWLSDVHRDSTGLSTDSLHDAGYPGAAALGDMICGMAVAKINSKDILFWFRSHTAAEIRWGGAKNDPSDMDDSRRMHPRLSFKAFLEVVKMKSLPWSDYEMDAIHSLQLILRGTLNDASKPKREASLDNQIGDLKLDGLAELQAVTSEMVRLMETATVPILAVDGNGLVNGWNQKAAELTGLRVDDAIGRHILTLVEDSSVPVVQRMLYLALQGKEEKEVRFEVKTHGPKRDDGPVILVVNACASRDLHDHVVGVCFVAQDMTVHKLVMDKFTRVEGDYKAIIHNPNPLIPPIFGADEFGWCSEWNAAMTKLTGWNRDEVLDKMLLGEVFDSSNASCPLKNRDAFVSLCVLINSALAGEETEKAPFGFFDRSGKYIECLLSANRKENEGGLITGVFCFIHVASHELQHALQVQQASEQTSLKRLKAFSYMRHAINNPLSGMLYSRKALKNTDLNEEQMKQIHVGDNCHHQINKILADLDQDSITEKSSCLDLEMAEFLLQDVVVAAVSQVLITCQGKGIRISCNLPERFMKQSVYGDGVRLQQILSDFLFISVKFSPVGGSVEISSKLTKNSIGENLHLIDLELRIKHQGLGVPAELMAQMFEEDNKEQSEEGLSLLVSRNLLRLMNGDVRHLREAGVSTFIITAELASAPTAMGQ
modifications: phycocyanobilin chromophore assembled (chromophore-binding site C322)
notes: Avena sativa (oat) phytochrome A, full-length gene AsPHYA; 1129 residues by the printed construct limits (66-1129aa); Used as Pr (far-red irradiated) and Pfr (red irradiated) forms; also called AsphyA; FL-AsphyA; source: phycocyanobilin added in vitro

No constants are given. Whether binding was seen depends on the method and setting. Binding can be weak; no strength is given.
